Source: patent US20080306019A1, “Dopamine Receptor Agonists in the Treatment and Prevention of Hiv-Induced Dementia” (priority 2005, published 2008)
At least one compound was matched to its structure with a doubt left.

Tested on: rat hippocampal neurons
Test: Live/Dead (Calcein/Ethidium) viability of rat hippocampal neuronal cultures

Row | SMILES | cell death, GBR-12909 with Tat (50 nM Tat 1-72 + 1-5 μM GBR-12909, 48 hours) | effect of SCH 23390 on toxicity of Tat (10 μM SCH 23390 + 50 nM Tat 1-72, 48 hours) | effect of SCH 23390 on survival under Tat+cocaine (10 μM SCH 23390 + 50 nM Tat + 1.5 μM cocaine, 48 hours, P=0.02)
1 | Fc1ccc(C(OCCN2CCN(CCCc3ccccc3)CC2)c2ccc(F)cc2)cc1 [GBR-12909] | synergized with Tat in producing cell death in a manner similar to that of cocaine |  | 
2 | CN1CCc2cc(Cl)c(O)cc2[C@@H](c2ccccc2)C1 [SCH 23390] |  | did not change the toxicity of Tat | improved the survival of rat hippocampal neurons subjected to Tat+cocaine
